Laboratory results taken from article PMC9983872.
No constants are given. Whether binding was seen depends on the method and setting. Binding seen in cells or lysates may run through a third protein. Some binding calls cover weakened binding; strength is not graded here. For part of these data: Where a sequence is shown, tags or fusion partners need not be part of it.

By UniProt entry, the sequences of proteins in these tests, tags left out. Residues count along the entry.
UniProt P03186, residues 1-325: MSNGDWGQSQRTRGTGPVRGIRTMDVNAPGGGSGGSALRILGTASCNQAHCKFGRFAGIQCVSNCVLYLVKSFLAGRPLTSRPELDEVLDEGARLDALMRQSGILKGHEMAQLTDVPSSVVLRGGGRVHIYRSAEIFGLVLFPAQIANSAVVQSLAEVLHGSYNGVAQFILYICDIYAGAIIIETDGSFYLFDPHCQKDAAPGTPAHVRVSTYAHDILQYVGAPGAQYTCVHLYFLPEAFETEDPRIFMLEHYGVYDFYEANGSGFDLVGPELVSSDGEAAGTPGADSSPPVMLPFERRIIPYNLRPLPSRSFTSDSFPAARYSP
UniProt Q86WV6: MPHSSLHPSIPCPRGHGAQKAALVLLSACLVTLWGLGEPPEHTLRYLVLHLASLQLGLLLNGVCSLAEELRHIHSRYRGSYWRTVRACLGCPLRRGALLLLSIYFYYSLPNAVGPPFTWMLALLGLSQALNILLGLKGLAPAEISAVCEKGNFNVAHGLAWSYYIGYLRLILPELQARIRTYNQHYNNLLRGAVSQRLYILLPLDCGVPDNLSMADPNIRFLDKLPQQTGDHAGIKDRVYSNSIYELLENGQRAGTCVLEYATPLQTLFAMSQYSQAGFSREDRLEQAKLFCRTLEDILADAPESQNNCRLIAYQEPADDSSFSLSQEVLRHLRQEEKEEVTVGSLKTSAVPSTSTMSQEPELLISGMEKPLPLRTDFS

Tests used:
[1] = target: Myc-tagged BPLF1 325 (first 325 amino acids of EBV large tegument protein BPLF1) (Epstein-Barr virus) (UniProt P03186); experiment: co-IP; reciprocal: Myc-BPLF1 and Flag-STING co-expressed in HEK293T cells; Myc-tagged BPLF1 precipitated, blot with anti-Flag; RIPA buffer
Flag-tagged STING = Flag-tagged STING (UniProt Q86WV6); experiment: co-IP; Myc-BPLF1 co-expressed with Flag-STING or Flag-TBK1 in HEK293T cells, harvested 24 h after transfection; lysis and washes in RIPA buffer; Flag-tagged protein precipitated with anti-Flag antibody on Dynabeads, blot with anti-Myc
Flag-tagged TBK1 = target: T1, Flag-tagged TBK1 (UniProt Q9UHD2); experiment: as above
T1 sequence: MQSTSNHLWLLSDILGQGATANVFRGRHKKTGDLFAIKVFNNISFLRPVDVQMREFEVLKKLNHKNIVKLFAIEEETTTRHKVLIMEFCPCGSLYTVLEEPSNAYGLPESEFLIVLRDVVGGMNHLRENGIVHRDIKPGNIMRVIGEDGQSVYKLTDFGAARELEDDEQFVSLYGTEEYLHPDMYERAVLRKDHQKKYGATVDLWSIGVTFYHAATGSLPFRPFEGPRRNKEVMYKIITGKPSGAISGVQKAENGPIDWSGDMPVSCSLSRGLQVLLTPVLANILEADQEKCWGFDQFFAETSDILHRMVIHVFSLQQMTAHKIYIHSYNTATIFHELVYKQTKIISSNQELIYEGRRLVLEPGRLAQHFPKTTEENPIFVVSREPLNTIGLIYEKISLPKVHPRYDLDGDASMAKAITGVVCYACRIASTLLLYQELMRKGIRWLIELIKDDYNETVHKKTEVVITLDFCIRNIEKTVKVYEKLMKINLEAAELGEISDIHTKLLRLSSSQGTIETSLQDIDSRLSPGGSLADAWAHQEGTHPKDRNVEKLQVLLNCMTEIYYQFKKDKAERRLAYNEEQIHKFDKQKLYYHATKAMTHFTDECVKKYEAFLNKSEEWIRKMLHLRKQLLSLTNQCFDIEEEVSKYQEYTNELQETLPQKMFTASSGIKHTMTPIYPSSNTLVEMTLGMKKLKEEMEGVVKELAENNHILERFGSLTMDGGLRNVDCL

Substance	binding [1]	binding (Flag-tagged STING)	binding (Flag-tagged TBK1)
Flag-tagged STING (from UniProt Q86WV6 1-379)	binds		
Myc-tagged BPLF1 325 (first 325 amino acids of EBV large tegument protein BPLF1) (from UniProt P03186 1-325) (domain or fragment)		binds	no binding
